{
  "source": "patent US4241184A",
  "about": "“Secondary alcohol dehydrogenase enzyme and use thereof” (priority 1979, dated 1980)",
  "key": {"[1]": {"test_system": "cell-free particulate fractions derived from the methylotrophic microorganisms", "experiment": "Conversion of C3-C6 n-alkanes to sec. alcohols by cell-free particulate fractions: inhibitors and electron donors", "format": "biochemical", "excerpt": "The conditions for preparing the cell suspensions or the cell-free particulate fractions from methane-grown methylotroph microorganisms is the same as described above. […] Tables XXV and XXVI show the conversion of C3 -C6 n-alkanes to the corresponding secondary alcohols using cell suspensions and cell-free particulate fractions, respectively, of methane-grown methylotroph microorganisms."}, "[2]": {"experiment": "Propylene- and methane-oxidizing activities in cell fractions P(40), P(80), S(80) of methylotrophs", "format": "biochemical", "details": "in place of NADH", "procedure": "The oxidation of methane and propylene by particulate [(P)40 and(P)80] fractions and soluble [S(80)] fraction was measured at 30° C. by estimating the production of methanol and propylene oxide, respectively.\nReaction mixtures were contained in 10 ml vials at 4° C. Vials were sealed with rubber caps. The gaseous phase in the vials was removed using vacuum and then was replaced with a gas mixture of methane or propylene and oxygen at a 1:1, v/v ratio. Oxidation of other gaseous n-alkanes and n-alkenes was examined as described above. For liquid substrates, 10 μl of substrate was used directly. Vials were then incubated at 30° C. on a rotary shaker at 200 RPM.\nThe column temperature was maintained isothermally at 120° C. The carrier gas flow rate was 30 ml/min. of helium."}},
  "note": "For at least one compound, name, drawing or mass did not settle the structure.",
  "data": [
    {"smiles": "O=C1O[C@H]([C@@H](O)CO)C(O)=C1O", "note": "[Ascorbate]", "values": [
      {"measurement": "electron donor in place of NADH for hydroxylation of n-alkanes", "setting": "[1]", "value": "could also be utilized"},
      {"measurement": "electron carrier for epoxidation of propylene and hydroxylation of methane", "setting": "[2]", "value": "could also be utilized"}
    ]}
  ]
}
